In PubChem BioAssay AID256 (DTP/NCI, 2004):
The list is a part of this screen's results and no random one: it is rich in T/C values a quarter to a half above the control, in often repeated tests (any T/C) and in doses without a T/C. Further doses and runs are listed elsewhere. T/C: endpoint of the treated group in % of that of the vehicle group. Some entries give survivors of the animals treated and no T/C: the source holds a T/C of zero for them, seemingly a mark for toxic or unscored doses. Some survivor counts are full or nearly so, which does not show that the dose was tolerated: survival well below the control is almost never listed, so the zero probably covers shortened survival too. Counts of survivors are from the toxicity check (mostly the fifth day) where no day follows; animals may have died later. Schedule codes are those of the source, read here as Q, the interval in days (D) or hours (H), X, the number of doses. Marks such as (2×) stand for listed records that agree. Where survival is the endpoint, the PubChem record calls one and a half times the control and up active, and a quarter to a half above the control has no call in these data; cut-offs in other NCI protocols can differ. Some doses were run more than once; the values are given in rising order.

Tested on: CD2F1 mice, L1210 leukemia ip, survival T/C
Assay: NCI In Vivo Anticancer Drug Screen. Data for tumor model L1210 Leukemia (intraperitoneal) in CD2F1 (CDF1) mice
Conditions: higher T/C = longer survival
In short: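 Each value reflects a quotient of treated over vehicle control outcomes in mice with a transplanted tumor.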

[1] = T/C endpoint: mean survival time, dose: 400.0 mg/kg/injection, schedule: Q04DX003 (ip), vehicle: saline with Tween-80
[2] = T/C endpoint: mean survival time, dose: 50.0 mg/kg/injection, schedule: Q01DX009 (ip), vehicle: saline with Tween-80
[3] = T/C endpoint: mean survival time, dose: 200.0 mg/kg/injection, schedule: Q04DX003 (ip), vehicle: saline with Tween-80
[4] = T/C endpoint: mean survival time, dose: 100.0 mg/kg/injection, schedule: Q01DX009 (ip), vehicle: saline with Tween-80
[5] = T/C endpoint: median survival time, dose: 100.0 mg/kg/injection, schedule: Q01DX009 (ip), vehicle: saline with Tween-80
[6] = T/C endpoint: mean survival time, dose: 75.0 mg/kg/injection, schedule: Q04DX003 (ip), vehicle: saline
[7] = T/C endpoint: mean survival time, dose: 400.0 mg/kg/injection, schedule: Q04DX002 (ip), vehicle: saline with Tween-80

NOCc1cc(Cl)sc1Cl
survivor count [1]: 1 of 6

Nc1ccc(OC(=O)c2ccccc2)cc1
survivor count [2]: 6 of 6

NC(CS/C=C\C(=O)O)C(=O)O (stereo not given)
survivor count [3]: 5 of 6

C[N+](C)(CC(=O)Nc1ccc(Cl)c(Cl)c1)CC(=O)c1ccc(Cl)cc1
survivor count (T/C endpoint: mean survival time, dose: 50.0 mg/kg/injection, schedule: Q01DX009 (ip), vehicle: saline): 6 of 6 | survivor count (T/C endpoint: mean survival time, dose: 100.0 mg/kg/injection, schedule: Q01DX009 (ip), vehicle: saline): 5 of 6

Nc1nc(N)c2c(Cl)c(CNc3ccc(Cl)c(Cl)c3)ccc2n1
T/C (T/C endpoint: mean survival time, dose: 12.5 mg/kg/injection, schedule: Q01DX009 (ip), vehicle: saline with Tween-80): 133 and 144 % of control | T/C (T/C endpoint: mean survival time, dose: 25.0 mg/kg/injection, schedule: Q01DX009 (ip), vehicle: saline with Tween-80): 144 % of control | T/C [4]: 141 % of control | T/C (T/C endpoint: median survival time, dose: 18.0 mg/kg/injection, schedule: Q01DX005 (ip), vehicle: saline with Tween-80): 139 % of control | T/C (T/C endpoint: median survival time, dose: 30.0 mg/kg/injection, schedule: Q01DX005 (ip), vehicle: saline with Tween-80): 139 % of control | T/C (T/C endpoint: median survival time, dose: 30.11 mg/kg/injection, schedule: Q01DX005 (ip), vehicle: saline with Tween-80): 131 % of control | T/C (T/C endpoint: median survival time, dose: 50.18 mg/kg/injection, schedule: Q01DX005 (ip), vehicle: saline with Tween-80): 144 % of control | T/C [5]: 128 and 134 % of control

CC(=O)N(C)O
T/C [5]: 125 % of control | T/C (T/C endpoint: median survival time, dose: 200.0 mg/kg/injection, schedule: Q01DX009 (ip), vehicle: saline with Tween-80): 149 % of control | survivor count (T/C endpoint: median survival time, dose: 400.0 mg/kg/injection, schedule: Q01DX009 (ip), vehicle: saline with Tween-80): 6 of 6

C=CC1=CC(=O)OC1=O
survivor count (T/C endpoint: mean survival time, dose: 75.0 mg/kg/injection, schedule: Q01DX001 (ip), vehicle: saline): 0 of 6 (2×) | survivor count (T/C endpoint: mean survival time, dose: 150.0 mg/kg/injection, schedule: Q01DX001 (ip), vehicle: saline): 0 of 6 (2×) | survivor count (T/C endpoint: mean survival time, dose: 300.0 mg/kg/injection, schedule: Q01DX001 (ip), vehicle: saline): 0 of 6 (2×)

CCc1ccccc1NC(=O)/C=C/C(=O)O
survivor count [3]: 3 of 6

O=S1CCCO1 (stereo not given)
survivor count (T/C endpoint: mean survival time, dose: 37.5 mg/kg/injection, schedule: Q04DX003 (ip), vehicle: saline): 5 of 6 | survivor count [6]: 0 of 6

COc1cc([C@@H]2c3cc4c(cc3[C@H](O)[C@H]3COC(=O)[C@H]23)OCO4)cc(OC)c1OC
T/C (T/C endpoint: median survival time, dose: 1.44 mg/kg/injection, schedule: Q01DX005 (ip), vehicle: saline with Tween-80): 132 % of control | T/C (T/C endpoint: median survival time, dose: 2.4 mg/kg/injection, schedule: Q01DX005 (ip), vehicle: saline with Tween-80): 126 % of control | T/C (T/C endpoint: median survival time, dose: 2.5 mg/kg/injection, schedule: Q01DX009 (ip), vehicle: saline with Tween-80): 125 % of control | T/C (T/C endpoint: median survival time, dose: 3.0 mg/kg/injection, schedule: Q01DX009 (ip), vehicle: saline with Tween-80): 142 % of control | T/C (T/C endpoint: median survival time, dose: 4.0 mg/kg/injection, schedule: Q01DX005 (ip), vehicle: Klucel (hydroxypropylcellulose) (HPC)): 131 % of control | T/C (T/C endpoint: median survival time, dose: 4.0 mg/kg/injection, schedule: Q01DX005 (ip), vehicle: saline with Tween-80): 136 % of control | T/C (T/C endpoint: median survival time, dose: 5.0 mg/kg/injection, schedule: Q01DX009 (ip), vehicle: saline with Tween-80, evaluated on day 20): 141 % of control | T/C (T/C endpoint: median survival time, dose: 5.0 mg/kg/injection, schedule: Q01DX009 (ip), vehicle: saline with Tween-80, evaluated on day 30): 128 and 147 % of control | T/C (T/C endpoint: median survival time, dose: 6.67 mg/kg/injection, schedule: Q01DX005 (ip), vehicle: saline with Tween-80): 144 % of control | survivor count (T/C endpoint: median survival time, dose: 8.0 mg/kg/injection, schedule: Q01DX005 (ip), vehicle: Klucel (hydroxypropylcellulose) (HPC)): 5 of 6 | T/C (T/C endpoint: median survival time, dose: 8.33 mg/kg/injection, schedule: Q01DX009 (ip), vehicle: saline with Tween-80): 125 % of control | T/C (T/C endpoint: median survival time, dose: 11.11 mg/kg/injection, schedule: Q01DX005 (ip), vehicle: saline with Tween-80): 136 % of control | survivor count (T/C endpoint: median survival time, dose: 16.0 mg/kg/injection, schedule: Q01DX005 (ip), vehicle: Klucel (hydroxypropylcellulose) (HPC)): 2 of 6 | survivor count (T/C endpoint: median survival time, dose: 32.0 mg/kg/injection, schedule: Q01DX005 (ip), vehicle: Klucel (hydroxypropylcellulose) (HPC)): 3 of 6

N=C(N)CCCCCCCCC(=N)N
survivor count (T/C endpoint: mean survival time, dose: 25.0 mg/kg/injection, schedule: Q01DX009 (ip), vehicle: saline): 1 of 6

NC(=O)C1C=CN(Cc2ccccc2)C=C1
survivor count (T/C endpoint: median survival time, dose: 240.0 mg/kg/injection, schedule: Q01DX005 (ip), vehicle: saline with Tween-80): 4 of 6 | survivor count (T/C endpoint: median survival time, dose: 480.0 mg/kg/injection, schedule: Q01DX005 (ip), vehicle: saline with Tween-80): 1 of 6

NC(N)=NO
T/C (T/C endpoint: mean survival time, dose: 100.0 mg/kg/injection, schedule: Q01DX009 (ip), vehicle: water): 125 % of control | T/C (T/C endpoint: mean survival time, dose: 200.0 mg/kg/injection, schedule: Q01DX009 (ip), vehicle: water): 141 % of control | T/C (T/C endpoint: mean survival time, dose: 400.0 mg/kg/injection, schedule: Q01DX009 (ip), vehicle: water): 130 and 146 % of control | survivor count (T/C endpoint: mean survival time, dose: 600.0 mg/kg/injection, schedule: Q01DX009 (ip), vehicle: water): 4 of 10 | survivor count (T/C endpoint: mean survival time, dose: 700.0 mg/kg/injection, schedule: Q01DX009 (ip), vehicle: water): 0 of 10 | survivor count (T/C endpoint: mean survival time, dose: 800.0 mg/kg/injection, schedule: Q01DX009 (ip), vehicle: water): 2 of 10

C=C(C)C(=O)OCC(O)C[N+](C)(C)C (stereo not given)
survivor count [3]: 4 of 6

NCC1OC(n2cnc3c(N)ncnc32)C(O)C1O (stereo not given)
survivor count (T/C endpoint: mean survival time, dose: 200.0 mg/kg/injection, schedule: Q01DX005 (ip), vehicle: Klucel (hydroxypropylcellulose) (HPC)): 3 of 6

CSc1ccc(NC(=O)CCl)cc1
survivor count [3]: 3 of 6 | survivor count [1]: 0 of 6

CN(C)C(=O)Sc1ccc(S(=O)(=O)F)cc1F
survivor count [7]: 1 of 3

CC(F)(F)C(F)(F)C(=O)CC(=O)C(F)(F)F.CC(F)(F)C(F)(F)C(=O)CC(=O)C(F)(F)F.[Cu]
survivor count (T/C endpoint: mean survival time, dose: 100.0 mg/kg/injection, schedule: Q04DX003 (ip), vehicle: saline with Tween-80): 4 of 6 | survivor count [3]: 0 of 6 | survivor count [1]: 0 of 6

CC(=O)OCC1OC(S[As](C)SC2OC(COC(C)=O)C(OC(C)=O)C(OC(C)=O)C2OC(C)=O)C(OC(C)=O)C(OC(C)=O)C1OC(C)=O (stereo not given)
survivor count [2]: 0 of 3 | survivor count [4]: 0 of 3 | survivor count (T/C endpoint: mean survival time, dose: 200.0 mg/kg/injection, schedule: Q01DX009 (ip), vehicle: saline with Tween-80): 0 of 3

C=C(Cl)CSCC
survivor count (T/C endpoint: mean survival time, dose: 100.0 mg/kg/injection, schedule: Q01DX009 (ip), vehicle: acetone): 0 of 6

CCCCCCCCCCCCCCCCCC[n+]1cccc(C(=O)c2ccccc2)c1
survivor count (T/C endpoint: mean survival time, dose: 37.5 mg/kg/injection, schedule: Q01DX001 (ip), vehicle: other): 3 of 6

COc1ccc(NC(=O)Nc2ccc(Br)cc2)cc1
survivor count [1]: 5 of 6

Cc1ccccc1N=C(N)Nc1ccccc1C
survivor count (T/C endpoint: mean survival time, dose: 20.0 mg/kg/injection, schedule: Q04DX003 (ip), vehicle: saline with Tween-80): 1 of 6 | survivor count (T/C endpoint: mean survival time, dose: 40.0 mg/kg/injection, schedule: Q04DX003 (ip), vehicle: saline with Tween-80): 2 of 6

O=NN(CCCl)C(=O)Nc1cccnc1
T/C (T/C endpoint: mean survival time, dose: 12.5 mg/kg/injection, schedule: Q01DX001 (ip), vehicle: water): 126 % of control | survivor count (T/C endpoint: mean survival time, dose: 25.0 mg/kg/injection, schedule: Q01DX001 (ip), vehicle: water): 5 of 5 | survivor count (T/C endpoint: mean survival time, dose: 50.0 mg/kg/injection, schedule: Q01DX001 (ip), vehicle: water): 0 of 5 | survivor count (T/C endpoint: mean survival time, dose: 100.0 mg/kg/injection, schedule: Q01DX001 (ip), vehicle: water): 0 of 5 | survivor count (T/C endpoint: mean survival time, dose: 200.0 mg/kg/injection, schedule: Q01DX001 (ip), vehicle: water): 0 of 5 | survivor count (T/C endpoint: mean survival time, dose: 400.0 mg/kg/injection, schedule: Q01DX001 (ip), vehicle: water): 0 of 5

C[PH+](C)C.C[PH+](C)C.[Au]
survivor count (T/C endpoint: median survival time, dose: 20.0 mg/kg/injection, schedule: Q01DX009 (ip), vehicle: saline): 5 of 10

CCCCOC(=O)COc1c(Cl)ccc(Cl)c1Cl
survivor count [7]: 1 of 3

COCCOCCN1CCN(CCCN2c3ccccc3Sc3ccc(C(F)(F)F)cc32)CC1
survivor count [6]: 3 of 6
